The record followed here is article PMC8352872, “Biochemical and structural studies of target lectin SapL1 from the emerging opportunistic microfungus Scedosporium apiospermum” (Scientific Reports, 2021).

No constants are given. Whether binding was seen depends on the method and setting. Some results given as binding are weak or reduced against the parent protein; the word gives no strength.

For this test, the target named is Scedosporium apiospermum Lectin 1 (SapL1), carbohydrate recognition domain, residues 75-369 (Scedosporium apiospermum). The test can be described thus: crystal structure; co-crystallised with alpha-methyl-fucoside; 100 mM Bicine pH 8.5, 1.5 M ammonium sulfate, 12% glycerol, 19 °C; space group P2(1), two monomers in the asymmetric unit; both purified.

B1: Scedosporium apiospermum Lectin 1 (SapL1), carbohydrate recognition domain, residues 75-369 (domain or fragment)
chain: MSGVLQISFPAGIAAIRNNSSLRVYEAALDGGVREAQYEGRWAGGKPDNVIATGKIGTPIAATSVGFQYIRVYYVGADNKAREACWDGKGWYTGAFVKDVAPYSSIGAVFLGKNIVVRVYTQNHDNTIQEWVWDSPSTGWTAGANFGAALPGTAIAATSWGAGPYHIRVYFQDTNRNVIESGWDGSGWYTGGLKISNQSPRASLGATSWGESGSSLGIRLYYATQDNLIKEKAWDGGGGWYDGGFQQRSIPGSRVAAIPLPVLRVYLQNGTEVSGITEYAWNSGWVVGQAVLPPA
notes: the first 74 residues of the annotated protein, which the authors suspect to be a misannotation, are left out; In the crystal all 295 amino acids are visible except the N-terminal methionine; also called hypothetical protein XP_016640003.1; source: E. coli BL21trxB (DE3), pProNde vector, purified (IMAC, TEV cleavage, second His-trap pass); not shown: His6, N-terminal, cleaved
Turning to B1, the binding result was “binds”.
